Assay: MARIPOSA Phase 3, treatment duration and disposition
Format: in vivo, human
Conditions: median follow-up 22.0 months

## C=CC(=O)Nc1cc(Nc2nccc(-c3cn(C)c4ccccc34)n2)c(OC)cc1N(C)CCN(C)C [Osimertinib]
  Median treatment duration: 18.0 months
